Taken from: PubChem BioAssay AID504804 (Drosophila RNAi Screening Center, 2011)
In all, the deposit lists about 19,000 reagents; shown is a random part of those that have a named target and a result. Over the whole deposit, 47 (0.25%) got an active call. 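Signals are raw, not normalised; exact z-scores behind calls not deposited; actives needed confirmation, so some wells reaching 2 SD are inactive.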 Unmarked entries are inactive. Reagents against one gene are numbered here. No sequences are given here.

Aim: 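Knock-downs shielding fly cells from apoptosis caused by DNA damage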 (primary screen)
Cells: Drosophila Kc cells
Reagents: long dsRNA against Drosophila genes, 0.5 µg dsRNA per well
Duration: 96 h (48 h knock-down, then 48 h drug)
Conditions: doxorubicin 5 µg/ml for 48 h, added 48 h after dsRNA
Detection: 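Viability measured as cellular ATP by luminescence after 48 h knock-down then 48 h doxorubicin at 5 µg/ml; unnormalised plate counts for each replicate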
Reading the numbers: raw ATP luminescence: higher = more viable cells, protection from doxorubicin
Call rule: 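z-score of 2 or more over plate mean in both duplicates, retained only when retests and separate dsRNAs confirm the protection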

kek6 (GeneID 43729) — raw ATP luminescence, replicate 1 = 31870; raw ATP luminescence, replicate 2 = 33850
CG14223 (GeneID 32972) — raw ATP luminescence, replicate 1 = 3.04e5; raw ATP luminescence, replicate 2 = 2.88e5
ICA69 (GeneID 40331) — raw ATP luminescence, replicate 1 = 21177; raw ATP luminescence, replicate 2 = 19947
Ibf2 (GeneID 41102) — raw ATP luminescence, replicate 1 = 38007; raw ATP luminescence, replicate 2 = 31927
GMF (GeneID 34963) — raw ATP luminescence, replicate 1 = 1.16e5; raw ATP luminescence, replicate 2 = 83823
CG11878 (GeneID 43050) — raw ATP luminescence, replicate 1 = 57260; raw ATP luminescence, replicate 2 = 51330

Continued; the last 2 above are carried over.
GMF (GeneID 34963) — raw ATP luminescence, replicate 1 = 1.16e5; raw ATP luminescence, replicate 2 = 83823
CG11878 (GeneID 43050) — raw ATP luminescence, replicate 1 = 57260; raw ATP luminescence, replicate 2 = 51330
Fmr1 (GeneID 37528) — raw ATP luminescence, replicate 1 = 46263; raw ATP luminescence, replicate 2 = 46533
CG4576 (GeneID 41914) — raw ATP luminescence, replicate 1 = 74460; raw ATP luminescence, replicate 2 = 63410
ttm3 (GeneID 35437) — raw ATP luminescence, replicate 1 = 54733; raw ATP luminescence, replicate 2 = 58407
CG1271 (GeneID 38364) — raw ATP luminescence, replicate 1 = 37707; raw ATP luminescence, replicate 2 = 47150
CG33061 (GeneID 318838) — raw ATP luminescence, replicate 1 = 35837; raw ATP luminescence, replicate 2 = 33797
Cht11 (GeneID 31630) — raw ATP luminescence, replicate 1 = 42390; raw ATP luminescence, replicate 2 = 43990
CG31300 (GeneID 326132) — raw ATP luminescence, replicate 1 = 86700; raw ATP luminescence, replicate 2 = 70710
CG34376 (GeneID 42638) #1 — raw ATP luminescence, replicate 1 = 48260; raw ATP luminescence, replicate 2 = 47570
CG34376 (GeneID 42638) #2 — raw ATP luminescence, replicate 1 = 43150; raw ATP luminescence, replicate 2 = 55080
CG34376 (GeneID 42638) #3 — raw ATP luminescence, replicate 1 = 49070; raw ATP luminescence, replicate 2 = 51200
mthl6 (GeneID 38839) — raw ATP luminescence, replicate 1 = 84243; raw ATP luminescence, replicate 2 = 83660
CG4151 (GeneID 31465) — raw ATP luminescence, replicate 1 = 26370; raw ATP luminescence, replicate 2 = 36390
beta3GalTII (GeneID 35848) — raw ATP luminescence, replicate 1 = 46147; raw ATP luminescence, replicate 2 = 89377
